Patent publication US9533026B2, “Polypeptide compounds for inhibiting angiogenesis and tumor growth” (VasGene Therapeutics, Inc., priority 2004, dated 2017)
At least one compound was matched to its structure with a doubt left.

System: EphB4
Test: EGF regulation of EphB4 in SCC15 cells with kinase inhibitors (Western blot)
Assay type: cell-based, human
Settings: for EGF stimulated induction of EphB4: serum-starved SCC15, 10 ng/ml EGF, 24 h
Method: B) SCC15 cells were serum-starved for 24 h prior to an additional 24 incubation as indicated with or without EGF (10 ng/ml), 3 μM U73122, or 5 μM SH-5, 5 μM SP600125, […] LY294002, - - μM PD098095 or 5 μM SB203580. N/A indicates cultures that received equal volume of diluent (DMSO) only. Cell lysates were subjected to Western Blot with EphB4 monoclonal antibody. β-actin signal serves as control of protein loading and transfer.

In the case of `COC[C@H]1OC(=O)c2coc3c2[C@@]1(C)C1=C(C3=O)[C@@H]2CCC(=O)[C@@]2(C)C[C@H]1OC(C)=O` [Wortmannin], the “EGF stimulated induction of EphB4” value is reported as “no discernible effect”.

With `O=c1cc(N2CCOCC2)oc2c(-c3ccccc3)cccc12` [LY294002] the “EGF stimulated induction of EphB4” value was “no discernible effect”.

For `Oc1c2ccccc2c2c3c(cccc13)N=N2` [SP600125], the “EGF stimulated induction of EphB4” value was “blocked” and the “basal levels of EphB4” value (serum-starved SCC15, 24 h) was “reduced”.
